Source: ChEMBL document CHEMBL3988442, “University of Dundee, Small-Polar-MMV Screening Library” (2021).

Sequences of proteins named here, by UniProt entry; tags and fusion partners are left off. Residues count along the entry.
UniProt P9WPC5, whole entry: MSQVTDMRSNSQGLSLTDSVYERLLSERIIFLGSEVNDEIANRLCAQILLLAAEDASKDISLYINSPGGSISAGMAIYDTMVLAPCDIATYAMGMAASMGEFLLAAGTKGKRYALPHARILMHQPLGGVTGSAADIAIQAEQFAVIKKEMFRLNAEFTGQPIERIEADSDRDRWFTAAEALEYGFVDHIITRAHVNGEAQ
UniProt P9WPC3, whole entry partner: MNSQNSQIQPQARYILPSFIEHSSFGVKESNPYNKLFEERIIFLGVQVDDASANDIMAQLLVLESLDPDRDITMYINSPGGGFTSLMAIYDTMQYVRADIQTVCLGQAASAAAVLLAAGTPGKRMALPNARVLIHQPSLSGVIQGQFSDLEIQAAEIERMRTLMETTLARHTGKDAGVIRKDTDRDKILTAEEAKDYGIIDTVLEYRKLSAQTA
UniProt P9WNZ1, whole entry: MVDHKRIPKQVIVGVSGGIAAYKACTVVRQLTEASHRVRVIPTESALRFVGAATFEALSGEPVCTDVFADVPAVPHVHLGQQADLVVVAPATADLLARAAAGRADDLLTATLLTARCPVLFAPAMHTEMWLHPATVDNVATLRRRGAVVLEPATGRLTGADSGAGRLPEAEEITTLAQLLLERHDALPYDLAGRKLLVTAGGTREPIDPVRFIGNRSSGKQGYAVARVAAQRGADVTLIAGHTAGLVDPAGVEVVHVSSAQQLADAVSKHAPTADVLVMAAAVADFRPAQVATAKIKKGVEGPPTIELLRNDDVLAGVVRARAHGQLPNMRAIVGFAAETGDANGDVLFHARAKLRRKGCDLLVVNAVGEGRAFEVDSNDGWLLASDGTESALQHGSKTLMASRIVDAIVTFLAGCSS
UniProt Q8IDJ8, 1-583: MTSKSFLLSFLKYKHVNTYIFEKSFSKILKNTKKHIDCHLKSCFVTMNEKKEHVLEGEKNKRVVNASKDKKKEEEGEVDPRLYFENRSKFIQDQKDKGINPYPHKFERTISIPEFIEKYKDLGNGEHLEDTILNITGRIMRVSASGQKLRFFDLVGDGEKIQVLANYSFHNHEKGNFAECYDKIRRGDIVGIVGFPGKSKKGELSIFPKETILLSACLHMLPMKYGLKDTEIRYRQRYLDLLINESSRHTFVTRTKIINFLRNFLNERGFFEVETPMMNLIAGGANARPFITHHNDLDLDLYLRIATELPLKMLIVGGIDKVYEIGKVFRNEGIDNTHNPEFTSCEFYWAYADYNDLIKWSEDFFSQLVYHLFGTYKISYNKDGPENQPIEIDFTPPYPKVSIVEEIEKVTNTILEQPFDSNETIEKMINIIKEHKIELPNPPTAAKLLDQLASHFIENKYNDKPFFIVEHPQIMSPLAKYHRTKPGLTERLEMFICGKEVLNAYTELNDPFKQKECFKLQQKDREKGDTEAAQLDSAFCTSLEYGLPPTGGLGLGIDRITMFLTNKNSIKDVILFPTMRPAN
UniProt Q4DA54, 1-478: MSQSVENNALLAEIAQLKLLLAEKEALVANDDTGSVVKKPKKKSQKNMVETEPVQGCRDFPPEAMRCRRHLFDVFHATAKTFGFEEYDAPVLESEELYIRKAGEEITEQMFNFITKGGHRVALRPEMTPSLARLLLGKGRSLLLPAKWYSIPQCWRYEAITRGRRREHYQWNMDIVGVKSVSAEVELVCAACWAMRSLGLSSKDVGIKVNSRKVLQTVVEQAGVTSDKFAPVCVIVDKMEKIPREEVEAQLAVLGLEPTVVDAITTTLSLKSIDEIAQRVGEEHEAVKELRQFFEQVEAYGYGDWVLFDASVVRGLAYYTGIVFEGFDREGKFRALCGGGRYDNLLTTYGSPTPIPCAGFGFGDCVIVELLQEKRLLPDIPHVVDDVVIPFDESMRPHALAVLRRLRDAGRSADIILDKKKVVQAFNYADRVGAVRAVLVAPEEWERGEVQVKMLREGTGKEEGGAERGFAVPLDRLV
UniProt I6X8D2, whole entry: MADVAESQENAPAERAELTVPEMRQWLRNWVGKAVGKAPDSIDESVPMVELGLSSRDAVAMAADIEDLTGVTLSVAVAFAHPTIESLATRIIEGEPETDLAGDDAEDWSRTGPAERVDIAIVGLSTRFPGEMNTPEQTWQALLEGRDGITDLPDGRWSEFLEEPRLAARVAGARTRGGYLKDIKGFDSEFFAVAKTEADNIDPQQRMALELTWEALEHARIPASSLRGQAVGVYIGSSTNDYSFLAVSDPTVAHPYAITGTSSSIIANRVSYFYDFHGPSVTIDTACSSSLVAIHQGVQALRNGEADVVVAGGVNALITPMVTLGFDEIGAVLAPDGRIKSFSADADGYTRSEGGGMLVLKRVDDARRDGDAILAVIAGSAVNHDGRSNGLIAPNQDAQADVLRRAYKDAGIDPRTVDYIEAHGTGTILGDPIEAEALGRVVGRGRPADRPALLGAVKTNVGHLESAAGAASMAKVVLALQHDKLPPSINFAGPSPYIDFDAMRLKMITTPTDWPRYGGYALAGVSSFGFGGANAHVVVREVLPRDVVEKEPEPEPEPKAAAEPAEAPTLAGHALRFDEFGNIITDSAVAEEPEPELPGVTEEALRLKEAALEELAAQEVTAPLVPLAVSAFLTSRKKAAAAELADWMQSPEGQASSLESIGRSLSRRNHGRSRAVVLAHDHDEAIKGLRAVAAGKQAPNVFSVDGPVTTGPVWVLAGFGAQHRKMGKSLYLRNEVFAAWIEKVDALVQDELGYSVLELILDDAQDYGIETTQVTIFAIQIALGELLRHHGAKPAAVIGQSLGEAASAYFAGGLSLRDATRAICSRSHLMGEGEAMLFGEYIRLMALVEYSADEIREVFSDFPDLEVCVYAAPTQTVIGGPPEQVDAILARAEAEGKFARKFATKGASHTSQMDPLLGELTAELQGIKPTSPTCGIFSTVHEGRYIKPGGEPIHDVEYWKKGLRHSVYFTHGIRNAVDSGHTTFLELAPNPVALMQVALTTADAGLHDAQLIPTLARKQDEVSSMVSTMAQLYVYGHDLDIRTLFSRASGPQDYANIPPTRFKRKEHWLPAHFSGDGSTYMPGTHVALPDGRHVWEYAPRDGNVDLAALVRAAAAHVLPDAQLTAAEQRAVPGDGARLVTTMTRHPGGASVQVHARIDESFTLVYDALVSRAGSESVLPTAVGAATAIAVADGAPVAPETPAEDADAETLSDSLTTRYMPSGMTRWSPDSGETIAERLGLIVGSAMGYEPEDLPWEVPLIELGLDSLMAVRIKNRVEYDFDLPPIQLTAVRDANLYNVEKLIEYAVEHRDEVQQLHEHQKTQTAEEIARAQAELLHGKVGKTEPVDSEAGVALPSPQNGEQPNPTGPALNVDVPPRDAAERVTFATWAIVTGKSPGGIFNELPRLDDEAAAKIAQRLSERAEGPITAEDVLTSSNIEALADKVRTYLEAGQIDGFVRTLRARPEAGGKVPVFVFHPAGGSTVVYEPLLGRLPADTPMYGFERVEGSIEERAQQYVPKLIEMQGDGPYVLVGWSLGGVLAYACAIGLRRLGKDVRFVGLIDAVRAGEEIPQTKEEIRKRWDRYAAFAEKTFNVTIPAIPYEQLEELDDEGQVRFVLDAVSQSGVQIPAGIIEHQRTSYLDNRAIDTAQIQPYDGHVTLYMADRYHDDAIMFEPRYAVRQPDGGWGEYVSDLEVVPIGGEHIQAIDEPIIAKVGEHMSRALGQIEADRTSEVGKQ

ClpP1P2: 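ClpP1P2, Mycobacterium tuberculosis (UniProt P9WPC5 and UniProt P9WPC3). Protease assay of ClpP1P2, read by the AMC dye that it sets free. Tested at 50 µM. Higher reads as stronger inhibition, judged from the few compounds that gave an IC50. Most other retested compounds had strongly negative values. Of about 69,000 compounds tested this way, about 10 (0.015%) reached 50% or more in at least one test.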
CoaBC: 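Enzyme assay of CoaBC with a phosphate dye (Biomol Green) read at 650 nm. Target: Coenzyme A biosynthesis protein CoaBC, Mycobacterium tuberculosis (UniProt P9WNZ1). Concentration: 30 µM. Higher reads as stronger inhibition, judged from the few compounds that gave an IC50. Most strong results did not repeat in a second test. About 67,000 compounds were tested under these conditions; 0.06% (about 40) showed 50% or more at least once.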
PfKRS1: 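Lysine-tRNA ligase, Plasmodium falciparum 3D7 (UniProt Q8IDJ8). Enzyme assay of the cytosolic lysyl-tRNA synthetase in 384-well plates, read by luminescence. Tested at 30 µM. Higher reads as stronger inhibition, judged from the few compounds that gave an IC50. Size under these conditions: about 69,000 compounds, about 49 of them at 50% or above in at least one test.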
TcHisRS: 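Histidine-tRNA ligase, Trypanosoma cruzi CL Brener (UniProt Q4DA54). Enzyme assay of histidyl-tRNA synthetase; the read-out is not stated. Compounds at 30 µM. Direction is inferred from retests: higher values go with stronger inhibition. Of about 69,000 compounds tested this way, about 31 (0.045%) reached 50% or more in at least one test.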
Pks13 thioesterase: 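Enzyme assay of the thioesterase domain of polyketide synthase 13; the read-out is not stated. Target: Polyketide synthase Pks13, Mycobacterium tuberculosis (UniProt I6X8D2). Compounds at 30 µM. Higher reads as stronger inhibition (inferred from which compounds were picked for retests). Of about 67,000 compounds tested this way, about 300 (0.46%) reached 50% or more in at least one test.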

Each number is a percent effect as filed.
The controls that fix the scale are not given in the record; negative values are as filed.
This is an unselected part of the compounds tested.
Two or more numbers in one place are separate tests of the same structure; such repeats can differ widely.
A dash means the value is not listed here; it may have been measured.

| # | compound | ClpP1P2 | CoaBC | PfKRS1 | TcHisRS | Pks13 thioesterase |
|---|---|---|---|---|---|---|
| 1 | `CC(=O)NCCc1ccc(C(=O)N2CCCC2c2cnn(C)c2)cc1` (stereo not drawn) | 14.57% | 4.841% | -3.782% | 1.515% | -14.73% |
| 2 | `Cc1nn(C)c2ncnc(N3CCC(O)(CN4CCCC4)CC3)c12` | -12.36% | 3.247% | 6.508% | 10.4% | -15.99% |
| 3 | `CCN1C(=O)CC(c2ccccc2)C12CCN(c1ncc(C)cn1)CC2` (stereo not drawn) | -0.8035% | - | 1.578% | 9.816% | -17.72% |
| 4 | `CC(c1nc(C2CC2)no1)N1CCc2c(ncn2C)C1` (stereo not drawn) | -16.24% | 12.72% | -5.798% | 2.609% | -12.49% |
| 5 | `CC[C@H]1CN2CC[C@H]1C[C@@H]2CNC(=O)Nc1ccc(Br)cc1` | -2.447% | -9.707% | 3.877% | 13.86% | 19.48% |
| 6 | `Cc1cc(S(=O)(=O)N2CCCc3cc(F)c(F)cc32)sc1C(=O)O` | 7.814% | -4.132% | 7.319% | -11.67% | 8.386% |
| 7 | `O=C(O)c1cc(-c2ccoc2)cc(S(=O)(=O)NCc2ccccn2)c1` | -5.673% | 12.4% | 8.646% | 13.79% | -10.27% |
| 8 | `CN(Cc1ccco1)C1CCC12CCN(C(=O)c1ccco1)CC2` (stereo not drawn) | -11.75% | 4.58% | -1.629% | 5.825% | -24.36% |
| 9 | `CCCn1nc(C)c(-c2cncn2CC2(N(C)C)CCC(C)CC2)c1C` (stereo not drawn) | -5.919% | 7.282% | 0.4695% | 8.046% | -7.533% |
| 10 | `COc1ccc(-c2n[nH]cc2CNC2CCN(C3CC3)CC2)cc1` | -10.45% | 1.734% | 6.741% | 7.895% | 3.27% |
| 11 | `CC1=Nc2c(c(=O)[nH]n2C2CCCCC2)C(c2ccc(C(=O)O)cc2)S1` (stereo not drawn) | -16.02% & -3.515% | 2.3% & -1.823% | 6.504% & 3.781% | 7.921% & 9.901% | -10.69% & -4.308% |
| 12 | `N#Cc1ccnc(N2CCN(Cc3cccc(F)c3)CC2)c1` | -7.548% | 5.286% | 1.323% | 0.8475% | -16.49% |
| 13 | `CC(C)[C@@H]1CN(C(=O)CCn2ccccc2=O)C[C@H]1NS(C)(=O)=O` | -0.925% | 3.571% | 2.224% | 9.392% | -50.06% |
| 14 | `Cc1nc(CN2CCC3(CC2)CC(c2cccnc2)C(=O)N3C)cs1` (stereo not drawn) | 4.799% | 3.171% | 4.317% | 13.33% | -4.536% |
| 15 | `CC(NCc1nnc2n1CCCC2)c1nc(-c2cccs2)no1` (stereo not drawn) | -7.284% | -1.217% | -1.197% | 1.818% | -5.978% |
| 16 | `Cc1nn(C)c(N(C)C)c1CNCCC(=O)NC1CCCCC1` | -36.65% | 4.725% | 1.195% | 5.78% | -8.723% |
| 17 | `CN1CCN(C(=O)c2cnsn2)c2ccc(F)cc21` | -26.82% | 1.453% | 2.208% | 5% | -2.231% |
| 18 | `Nc1cc(C(=O)N2CCOC(Cc3cccc(C(F)(F)F)c3)C2)ccn1` (stereo not drawn) | -12.46% | 5.011% | -2.233% | 5.464% | 8.199% |
| 19 | `CC1CCN(CCNCc2cc(-c3ccccc3)cn3nnnc23)CC1` | -3.58% | 2.676% | 0.9754% | 2.239% | -10.59% |
| 20 | `O=C(O)c1cc(-c2cccnc2)cc(S(=O)(=O)N2CCCCCC2)c1` | -8.366% | -2.193% | 3.112% | 6.612% | -9.821% |
| 21 | `CCOc1ccc(Cl)c(C(=O)NCCC(=O)Nc2ccncc2)n1` | -13.69% | 4.474% | -1.586% | 6.158% | -23.84% |
| 22 | `Cc1occc1C(=O)Nc1ccc(C(=O)NC[C@H]2CCCN2)cc1` | -2.788% | -2.577% | 7.738% | 4.938% | -2.988% |
| 23 | `Cc1ncc(CN(C)Cc2nc3cc(Cl)ccc3n2C)s1` | 7.158% | 1.263% | 6.716% | 9.942% | -39.52% |
| 24 | `Cc1cnn(CC2CCCCN2C(=O)Cc2cccc(F)c2)c1` (stereo not drawn) | -7.871% | 2.417% | 0.962% | 1.69% | -9.496% |
| 25 | `CC(C)c1cc(Br)ccc1NC(=O)NCC(O)CO` (stereo not drawn) | -1.406% | 6.762% | 0.7954% | 5.319% | -12.11% |
| 26 | `CC(C)n1cnc2c1C(C(=O)NCCC#N)N(Cc1ccccc1)CC2` (stereo not drawn) | 0.5363% | 6.726% | 5.031% | 1.622% | -33.92% |
| 27 | `Cc1noc(C)c1CNCC1Cn2nncc2CO1` (stereo not drawn) | -4.017% | 1.238% | 3.55% | -3.315% | 2.081% |
| 28 | `Cn1nnc2cc(C(=O)NS(=O)(=O)c3cccc(C#N)c3)ccc21` | -5.203% | 2.016% | 4.472% | 5.882% | -11.79% |
| 29 | `CC(=O)N1CCOC2(CCCN(Cc3ccc(Cl)c(C(F)(F)F)c3)C2)C1` (stereo not drawn) | -1.555% | 5.537% | 8.817% | 5.882% | -33.22% |
| 30 | `O=S(=O)(c1ccc(Cl)s1)N1CCCn2ncnc21` | 5.44% | 3.704% | 1.009% | 5.051% | -16.19% |
| 31 | `CC(=O)Nc1ccc(C(=O)Nc2cnc3n2CCCC3)c(C)c1` | -22.45% | 6.362% | 4.044% | 4.95% | -6.061% |
| 32 | `CCc1noc(CN(CC(=O)N2CCCCC2)c2cccc(C)c2)n1` | -3.271% | 5.645% | 2.379% | 7.263% | -28.41% |

The last 4 entries again:

| compound | ClpP1P2 | CoaBC | PfKRS1 | TcHisRS | Pks13 thioesterase |
|---|---|---|---|---|---|
| `CC(=O)N1CCOC2(CCCN(Cc3ccc(Cl)c(C(F)(F)F)c3)C2)C1` (stereo not drawn) | -1.555% | 5.537% | 8.817% | 5.882% | -33.22% |
| `O=S(=O)(c1ccc(Cl)s1)N1CCCn2ncnc21` | 5.44% | 3.704% | 1.009% | 5.051% | -16.19% |
| `CC(=O)Nc1ccc(C(=O)Nc2cnc3n2CCCC3)c(C)c1` | -22.45% | 6.362% | 4.044% | 4.95% | -6.061% |
| `CCc1noc(CN(CC(=O)N2CCCCC2)c2cccc(C)c2)n1` | -3.271% | 5.645% | 2.379% | 7.263% | -28.41% |